Measurements from publication PMC10213050.

Protein sequences, listed by entry. Tags and fused reporters are not part of them.
UniProt Q06609, whole entry: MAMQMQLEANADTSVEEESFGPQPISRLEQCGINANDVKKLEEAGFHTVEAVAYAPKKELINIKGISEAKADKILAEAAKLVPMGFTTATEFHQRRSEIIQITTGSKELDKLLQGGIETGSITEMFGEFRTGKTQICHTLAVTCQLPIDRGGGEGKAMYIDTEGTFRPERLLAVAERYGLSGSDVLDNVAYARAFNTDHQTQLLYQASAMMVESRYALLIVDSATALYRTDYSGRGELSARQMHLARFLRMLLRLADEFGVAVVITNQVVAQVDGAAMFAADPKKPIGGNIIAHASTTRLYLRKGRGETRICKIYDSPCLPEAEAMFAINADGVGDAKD

Columns and labels:
Assay in all cases: pull-down
[1] = biological target: T1, Rad51 (Saccharomyces cerevisiae (yeast)) (UniProt P25454); settings: with RPA, which markedly inhibits Rad51 binding, alleviated by Bre1; Pull-down: 42 mM Tris-HCl pH 7.5, 15 mM KCl, 90 mM NaCl, 2 mM ATP, 1 mM EDTA, 0.5% NP-40, 1 mM DTT, 20 ug/mL BSA, 5% glycerol, 37 C; recombinant protein; residues 1-400; protein details: 6xHis (pET30a) or GST-cleaved; label: 5'-biotin; single-stranded DNA
T1 sequence (looked up): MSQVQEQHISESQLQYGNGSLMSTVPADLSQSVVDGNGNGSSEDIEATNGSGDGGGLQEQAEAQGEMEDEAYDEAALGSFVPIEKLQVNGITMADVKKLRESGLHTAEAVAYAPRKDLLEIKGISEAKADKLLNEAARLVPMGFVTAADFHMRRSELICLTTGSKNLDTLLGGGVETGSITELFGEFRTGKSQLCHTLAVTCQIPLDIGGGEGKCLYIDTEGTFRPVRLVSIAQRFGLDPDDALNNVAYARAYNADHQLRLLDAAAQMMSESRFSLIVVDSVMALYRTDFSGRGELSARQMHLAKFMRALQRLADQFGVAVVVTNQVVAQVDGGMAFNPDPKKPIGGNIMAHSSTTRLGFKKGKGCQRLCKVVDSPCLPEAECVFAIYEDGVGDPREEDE

[2] = biological target: T2, Srs2 (Saccharomyces cerevisiae (yeast)) (UniProt P12954); settings: Pull-down: 42 mM Tris-HCl pH 7.5, 15 mM KCl, 90 mM NaCl, 2 mM ATP, 1 mM EDTA, 0.5% NP-40, 1 mM DTT, 20 ug/mL BSA, 5% glycerol, 37 C, recombinant protein, residues 1-1174, protein details: GST (pGEX-6p-1), label: 5'-biotin, single-stranded DNA
T2 sequence (looked up): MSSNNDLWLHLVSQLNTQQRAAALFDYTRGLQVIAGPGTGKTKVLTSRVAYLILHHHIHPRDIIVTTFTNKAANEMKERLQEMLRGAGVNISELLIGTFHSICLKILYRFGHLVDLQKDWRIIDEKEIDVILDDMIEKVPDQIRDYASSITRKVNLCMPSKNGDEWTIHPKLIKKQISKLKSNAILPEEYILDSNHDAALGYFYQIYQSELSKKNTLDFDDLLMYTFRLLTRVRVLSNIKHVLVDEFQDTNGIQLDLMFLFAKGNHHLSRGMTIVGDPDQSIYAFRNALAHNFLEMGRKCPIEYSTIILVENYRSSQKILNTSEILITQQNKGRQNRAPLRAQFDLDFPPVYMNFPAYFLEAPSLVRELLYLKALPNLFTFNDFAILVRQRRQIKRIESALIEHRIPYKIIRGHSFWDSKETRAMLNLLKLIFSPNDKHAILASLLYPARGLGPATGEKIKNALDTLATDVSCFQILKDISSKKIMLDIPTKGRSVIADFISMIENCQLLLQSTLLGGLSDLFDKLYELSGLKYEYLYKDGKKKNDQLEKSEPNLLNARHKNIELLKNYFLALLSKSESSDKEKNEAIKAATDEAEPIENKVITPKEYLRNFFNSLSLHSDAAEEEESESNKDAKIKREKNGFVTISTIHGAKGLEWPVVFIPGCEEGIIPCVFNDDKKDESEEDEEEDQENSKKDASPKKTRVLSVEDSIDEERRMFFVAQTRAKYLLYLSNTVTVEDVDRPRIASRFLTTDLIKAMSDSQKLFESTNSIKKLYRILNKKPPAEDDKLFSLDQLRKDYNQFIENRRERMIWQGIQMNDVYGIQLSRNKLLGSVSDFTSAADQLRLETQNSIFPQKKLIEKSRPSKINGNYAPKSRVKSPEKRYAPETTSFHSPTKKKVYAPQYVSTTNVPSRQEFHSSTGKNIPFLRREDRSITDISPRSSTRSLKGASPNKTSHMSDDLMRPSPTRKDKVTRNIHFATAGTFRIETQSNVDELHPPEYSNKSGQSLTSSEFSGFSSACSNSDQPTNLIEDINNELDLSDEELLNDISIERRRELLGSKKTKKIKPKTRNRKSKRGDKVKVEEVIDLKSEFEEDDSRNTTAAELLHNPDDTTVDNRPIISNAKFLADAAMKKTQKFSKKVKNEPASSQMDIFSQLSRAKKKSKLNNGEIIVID

hRad51 (Homo sapiens) = hRad51 (Homo sapiens) (UniProt Q06609); settings: on hRPA-coated ssDNA, stimulated by RNF20N; Pull-down: 42 mM Tris-HCl pH 7.5, 15 mM KCl, 90 mM NaCl, 2 mM ATP, 1 mM EDTA, 0.5% NP-40, 1 mM DTT, 20 ug/mL BSA, 5% glycerol, 37 C; recombinant protein; protein details: 6xHis or GST-cleaved; label: 5'-biotin; single-stranded DNA

Measured: binding result

CGACAGGTCATGGCCGTACATGATATCCTCGAGCGTCCTGTTGCAACTTACACTCTGAATAGCCGAATTCTTAGGGTTAGGGTTAACA [90-nt ssDNA]
binds more weakly: [1] | [2]; with Bre1, added before or after Srs2 | [2]; with Bre1-EK2A, Srs2 unloaded | hRad51 (Homo sapiens)

Construct, isoform or probe ends are uncertain for at least one entry. A weaker result is weaker than the reference pair of the same experiment. For some of these results: Tags and fusion partners may be left off the protein sequences shown.
